Consider one molecule from publication doi:10.1101/2022.11.20.517165.

The target of the assay is Toc75 (Chlamydomonas reinhardtii). The experiment in a line: cryo-EM structure.

These are yes or no findings as the source states them, for the method shown. A result given as binding can be weak or reduced; the word gives no strength.

B1: Toc34 (protein, UniProt A8HYJ1 1-397)
chain: MAQPPRPAEEYDDDVQEDEDELKEGELDDDESHEAASEGGEAAAGDEEAEDDEQDEEDGDEDSQPWAGLNRLPERDDMLDILNELRAEGRKQLTVLLLGKSSVGKSSLINSLLGEAVVRVQAFKLQADTDITTTVVRQVAVGNSEVDGFRLKLIDTCGLEDPEAGDTVNLGALSKIAEDVRGVGIDVVLYCDRLDLYRVDPLDKAIIDAISSTFGRGIWRRTVVALTHANLVQTPPGTDYDSFVNGRVRLIRGAVRGPLFFRPSLPVALVENSETCPVSSESGFRVLPDGEPWLVALVSQLVDMAAARRRPYKYHPRLSSKPSHRFRWLLPVAIAAEVLFYRRFLHPRLDDNQRRVEREEERVWALRGQQRRALGLHRPHRPDKDAAWRLEQMYDDD
Consider B1, for which the binding result was “binds”.
